# Source: patent US20030211545A1, “Treatment of neuropsychiatric disease with protease and neurominidase inhibitors” (priority 2002, published 2003)
# For at least one compound, name, drawing or mass did not settle the structure. Starred links: 1 amine or outer side, 2 acyl side, 3 side chain; linkers in the order of their positions; H or OH if unused. Residues, ends and D or L forms follow the SMILES beside them. CO = O=C([*:1])[*:2]
# Test system: N-CAM 180
# Experiment: Incubation of human occipital cortex membrane and cytosolic fractions with protease inhibitors, N-CAM immunoblot
# Assay type: biochemical
# Conditions: 10 μM, room temperature, over the course of 48 hr, FIG. 8B and C
# From the text: Fresh or frozen human brain cortex is dissected free of pia mater layer and any obvious blood vessels on the surface of the cortex. Pulverize the cortex in a sufficient quantity of liquid Nitrogen to a friable state with mortar and pestle, and accurately weigh out replicate samples of pulverized brain sample while keeping all vessels frozen in dry ice. Place the quantity of protease inhibitor or neuraminidase inhibitor in a PBS buffer of final pH 7.4 and maintain buffer on ice. Add the varying concentrations and combinations of protease inhibitors and/or neuraminidase inhibitors to separate pulverized brain in tubes in a final volume to yield a 20% weight of brain tissue/buffer volume. […] The results can be quantitatively assessed by densitometry of immunoblots as previously published which yields a linear response within a loading range of proteins (˜1-100 μg of protein) depending on gel capacity used and concentrations of antibody and detection substrates which are empirically determined with standard methods. […]
# Membrane and cytosolic fractions from human occipital cortex were incubated in the presence of protease inhibitors (10 μM final concentration) for varying lengths of time (typically 2, 4, 8, 16, 32, and 48 hrs at room temperature). An aliquot was analyzed by gel electrophoresis and immunoblotted with N-CAM 3732 antibody. […]
structure (smiles),measurement,value
"CC(C)[C@H](NC(=O)[C@H](CCCNC(=N)N)NC(=O)N[C@@H](Cc1ccccc1)C(=O)O)C(=O)N[C@H](C=O)CCCNC(=N)N [antipain, [(S)-1-Carboxy-2-Phenyl]-carbamoyl-Arg-Val-arginal] ({Phe-CO}-Arg-Val-Arg-aldehyde)",inhibition of the increase in cN-CAM,completely inhibited
